# Data taken from the supplement of paper PMC10849652.
# Protein sequences, listed by entry. Tags and fused reporters are not part of them. Lines headed by an entry give the natural chain unless they say otherwise; changes in a name come on top.
# UniProt Q9NXH8: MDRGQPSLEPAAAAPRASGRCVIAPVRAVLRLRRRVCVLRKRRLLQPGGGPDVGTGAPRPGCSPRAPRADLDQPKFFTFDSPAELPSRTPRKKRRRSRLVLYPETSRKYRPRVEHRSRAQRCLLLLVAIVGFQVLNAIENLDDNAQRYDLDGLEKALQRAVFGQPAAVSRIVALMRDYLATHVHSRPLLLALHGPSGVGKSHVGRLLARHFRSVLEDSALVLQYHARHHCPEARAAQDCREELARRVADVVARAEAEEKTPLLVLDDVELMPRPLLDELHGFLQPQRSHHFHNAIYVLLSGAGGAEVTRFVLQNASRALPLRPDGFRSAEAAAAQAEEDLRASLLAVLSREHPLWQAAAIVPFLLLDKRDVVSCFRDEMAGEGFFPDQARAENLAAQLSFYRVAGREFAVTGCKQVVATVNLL
# UniProt Q5JTV8: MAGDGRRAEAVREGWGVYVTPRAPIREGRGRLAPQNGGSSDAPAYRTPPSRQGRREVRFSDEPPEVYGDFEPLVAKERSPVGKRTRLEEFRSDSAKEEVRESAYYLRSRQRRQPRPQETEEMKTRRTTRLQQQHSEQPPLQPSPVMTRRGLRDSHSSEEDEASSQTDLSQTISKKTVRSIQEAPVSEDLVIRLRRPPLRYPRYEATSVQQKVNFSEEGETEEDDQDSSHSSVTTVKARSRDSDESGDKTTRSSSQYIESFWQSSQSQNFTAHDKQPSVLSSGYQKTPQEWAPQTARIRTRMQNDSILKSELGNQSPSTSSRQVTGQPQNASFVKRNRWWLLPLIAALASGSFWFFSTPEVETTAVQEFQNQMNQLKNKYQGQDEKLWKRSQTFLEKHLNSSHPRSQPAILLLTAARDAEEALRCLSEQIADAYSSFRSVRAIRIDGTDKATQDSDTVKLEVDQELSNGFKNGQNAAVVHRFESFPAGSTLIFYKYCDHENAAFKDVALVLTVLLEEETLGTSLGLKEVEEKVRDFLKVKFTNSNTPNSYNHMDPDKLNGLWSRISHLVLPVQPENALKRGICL
# UniProt Q13595: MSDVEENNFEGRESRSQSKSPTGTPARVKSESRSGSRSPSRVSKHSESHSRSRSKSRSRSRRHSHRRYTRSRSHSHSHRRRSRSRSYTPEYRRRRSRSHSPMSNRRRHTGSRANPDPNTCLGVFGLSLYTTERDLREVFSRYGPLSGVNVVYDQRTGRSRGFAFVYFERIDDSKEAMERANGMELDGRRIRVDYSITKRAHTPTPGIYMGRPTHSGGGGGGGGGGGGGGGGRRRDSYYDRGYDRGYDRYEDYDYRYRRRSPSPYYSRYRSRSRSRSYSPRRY
# UniProt P63313: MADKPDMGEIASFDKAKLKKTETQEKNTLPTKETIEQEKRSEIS
# UniProt O14787: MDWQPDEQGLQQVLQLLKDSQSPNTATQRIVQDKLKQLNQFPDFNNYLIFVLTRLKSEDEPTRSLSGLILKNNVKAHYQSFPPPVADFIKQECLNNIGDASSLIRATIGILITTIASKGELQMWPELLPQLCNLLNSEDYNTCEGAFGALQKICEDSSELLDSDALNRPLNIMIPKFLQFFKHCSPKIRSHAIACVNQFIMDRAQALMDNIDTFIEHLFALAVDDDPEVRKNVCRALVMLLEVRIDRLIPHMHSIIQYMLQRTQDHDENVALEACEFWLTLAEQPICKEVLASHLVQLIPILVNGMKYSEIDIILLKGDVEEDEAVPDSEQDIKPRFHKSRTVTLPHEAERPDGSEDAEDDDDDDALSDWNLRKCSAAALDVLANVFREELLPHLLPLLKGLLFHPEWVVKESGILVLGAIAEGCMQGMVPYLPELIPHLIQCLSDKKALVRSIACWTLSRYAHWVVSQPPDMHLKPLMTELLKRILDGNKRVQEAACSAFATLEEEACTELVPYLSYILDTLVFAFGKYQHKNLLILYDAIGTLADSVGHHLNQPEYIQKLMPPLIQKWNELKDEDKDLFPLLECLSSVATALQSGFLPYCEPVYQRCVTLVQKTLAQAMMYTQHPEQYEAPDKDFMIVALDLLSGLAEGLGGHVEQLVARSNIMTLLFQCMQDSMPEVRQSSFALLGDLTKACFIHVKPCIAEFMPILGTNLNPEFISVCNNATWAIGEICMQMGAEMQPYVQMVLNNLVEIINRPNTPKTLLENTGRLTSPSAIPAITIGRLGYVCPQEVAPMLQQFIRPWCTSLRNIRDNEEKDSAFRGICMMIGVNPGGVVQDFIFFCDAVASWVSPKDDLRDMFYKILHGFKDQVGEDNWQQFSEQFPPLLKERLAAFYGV
# UniProt P02585, whole entry, looked up: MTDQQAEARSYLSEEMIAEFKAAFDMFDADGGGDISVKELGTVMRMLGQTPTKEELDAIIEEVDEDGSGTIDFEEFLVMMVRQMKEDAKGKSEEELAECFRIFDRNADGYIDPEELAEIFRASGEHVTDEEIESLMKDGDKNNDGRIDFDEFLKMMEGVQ
# UniProt P20333, whole entry, looked up: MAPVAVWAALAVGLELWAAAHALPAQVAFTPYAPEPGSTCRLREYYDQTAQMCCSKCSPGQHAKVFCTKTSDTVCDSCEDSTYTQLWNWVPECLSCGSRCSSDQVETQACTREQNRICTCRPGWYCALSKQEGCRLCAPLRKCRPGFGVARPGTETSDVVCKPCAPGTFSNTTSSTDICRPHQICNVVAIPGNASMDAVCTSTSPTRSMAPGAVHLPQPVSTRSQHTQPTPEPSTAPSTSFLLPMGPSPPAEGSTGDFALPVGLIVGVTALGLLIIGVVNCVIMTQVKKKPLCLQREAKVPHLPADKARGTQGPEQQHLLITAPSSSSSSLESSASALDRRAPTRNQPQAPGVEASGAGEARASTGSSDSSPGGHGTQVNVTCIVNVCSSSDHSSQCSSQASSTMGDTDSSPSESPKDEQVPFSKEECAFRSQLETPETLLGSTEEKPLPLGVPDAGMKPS
# UniProt O43399: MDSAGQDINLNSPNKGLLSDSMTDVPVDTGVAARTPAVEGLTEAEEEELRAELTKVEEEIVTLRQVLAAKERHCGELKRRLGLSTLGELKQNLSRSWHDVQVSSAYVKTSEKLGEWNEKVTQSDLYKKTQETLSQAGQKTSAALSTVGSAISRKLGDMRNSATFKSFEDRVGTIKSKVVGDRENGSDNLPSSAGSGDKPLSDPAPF
# UniProt Q9Y5L0: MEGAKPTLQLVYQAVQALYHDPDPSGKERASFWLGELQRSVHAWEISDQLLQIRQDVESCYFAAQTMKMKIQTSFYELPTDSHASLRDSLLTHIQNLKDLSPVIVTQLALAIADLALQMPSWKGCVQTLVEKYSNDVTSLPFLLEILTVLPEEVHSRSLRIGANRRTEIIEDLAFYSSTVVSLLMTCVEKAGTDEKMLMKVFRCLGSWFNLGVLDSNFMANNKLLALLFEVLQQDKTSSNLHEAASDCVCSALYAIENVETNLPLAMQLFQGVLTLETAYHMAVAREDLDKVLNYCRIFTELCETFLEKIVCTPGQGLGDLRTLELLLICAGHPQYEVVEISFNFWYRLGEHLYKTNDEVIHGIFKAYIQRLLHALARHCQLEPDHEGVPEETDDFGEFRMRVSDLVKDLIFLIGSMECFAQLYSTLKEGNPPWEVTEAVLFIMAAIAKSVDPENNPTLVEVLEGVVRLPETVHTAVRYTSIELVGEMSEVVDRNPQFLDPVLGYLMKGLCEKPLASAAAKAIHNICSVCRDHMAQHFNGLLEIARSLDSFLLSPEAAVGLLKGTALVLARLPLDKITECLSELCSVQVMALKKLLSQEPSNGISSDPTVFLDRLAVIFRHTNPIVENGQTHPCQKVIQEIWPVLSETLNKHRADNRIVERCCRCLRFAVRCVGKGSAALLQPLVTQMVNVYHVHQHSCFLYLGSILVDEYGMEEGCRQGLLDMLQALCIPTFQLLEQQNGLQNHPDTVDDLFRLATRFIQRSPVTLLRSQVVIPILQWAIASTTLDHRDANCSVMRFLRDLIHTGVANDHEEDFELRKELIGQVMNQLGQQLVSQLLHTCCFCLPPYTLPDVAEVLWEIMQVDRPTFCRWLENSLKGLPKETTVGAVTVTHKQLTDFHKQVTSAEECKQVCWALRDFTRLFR
# UniProt P11388: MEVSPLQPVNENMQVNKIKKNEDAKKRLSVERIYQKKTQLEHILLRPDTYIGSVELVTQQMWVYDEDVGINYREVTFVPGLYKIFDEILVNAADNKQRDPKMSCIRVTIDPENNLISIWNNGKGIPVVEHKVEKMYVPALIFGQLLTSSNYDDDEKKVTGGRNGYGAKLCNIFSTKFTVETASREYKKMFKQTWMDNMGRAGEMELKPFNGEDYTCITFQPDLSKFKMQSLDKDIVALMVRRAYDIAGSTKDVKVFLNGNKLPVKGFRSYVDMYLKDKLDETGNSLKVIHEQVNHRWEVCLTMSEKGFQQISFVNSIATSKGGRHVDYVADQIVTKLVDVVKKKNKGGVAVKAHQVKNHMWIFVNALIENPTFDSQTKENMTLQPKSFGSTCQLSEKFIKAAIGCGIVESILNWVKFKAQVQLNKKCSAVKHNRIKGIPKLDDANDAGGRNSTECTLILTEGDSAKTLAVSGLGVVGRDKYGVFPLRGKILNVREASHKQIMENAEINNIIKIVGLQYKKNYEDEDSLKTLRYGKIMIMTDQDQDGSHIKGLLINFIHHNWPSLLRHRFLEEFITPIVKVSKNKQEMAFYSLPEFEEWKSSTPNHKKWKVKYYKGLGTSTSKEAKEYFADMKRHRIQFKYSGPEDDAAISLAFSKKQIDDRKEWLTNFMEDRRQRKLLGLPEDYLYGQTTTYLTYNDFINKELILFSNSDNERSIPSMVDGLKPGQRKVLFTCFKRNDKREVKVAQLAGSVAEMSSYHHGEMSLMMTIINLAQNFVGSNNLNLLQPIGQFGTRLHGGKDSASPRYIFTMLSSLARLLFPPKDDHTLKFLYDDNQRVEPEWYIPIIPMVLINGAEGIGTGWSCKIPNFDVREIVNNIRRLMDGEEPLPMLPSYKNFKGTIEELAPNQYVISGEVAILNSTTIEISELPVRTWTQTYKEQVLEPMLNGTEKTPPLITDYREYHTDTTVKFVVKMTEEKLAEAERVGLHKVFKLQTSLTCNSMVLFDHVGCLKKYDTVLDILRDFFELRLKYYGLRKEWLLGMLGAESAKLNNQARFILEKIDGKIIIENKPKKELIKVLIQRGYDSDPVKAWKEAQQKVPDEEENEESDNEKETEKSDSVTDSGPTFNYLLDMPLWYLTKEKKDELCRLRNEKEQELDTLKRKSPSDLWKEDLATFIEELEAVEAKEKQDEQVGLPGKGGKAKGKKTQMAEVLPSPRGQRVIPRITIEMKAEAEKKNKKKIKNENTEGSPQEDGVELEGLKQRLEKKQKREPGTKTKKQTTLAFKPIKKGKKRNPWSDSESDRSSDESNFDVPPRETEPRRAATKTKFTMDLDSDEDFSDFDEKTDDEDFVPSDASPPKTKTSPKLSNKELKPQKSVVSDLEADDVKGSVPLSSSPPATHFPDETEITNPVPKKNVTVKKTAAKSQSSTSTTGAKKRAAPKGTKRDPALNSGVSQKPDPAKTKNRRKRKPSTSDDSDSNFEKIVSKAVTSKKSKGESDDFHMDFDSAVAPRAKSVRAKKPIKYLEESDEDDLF
# UniProt O14763, whole entry, looked up: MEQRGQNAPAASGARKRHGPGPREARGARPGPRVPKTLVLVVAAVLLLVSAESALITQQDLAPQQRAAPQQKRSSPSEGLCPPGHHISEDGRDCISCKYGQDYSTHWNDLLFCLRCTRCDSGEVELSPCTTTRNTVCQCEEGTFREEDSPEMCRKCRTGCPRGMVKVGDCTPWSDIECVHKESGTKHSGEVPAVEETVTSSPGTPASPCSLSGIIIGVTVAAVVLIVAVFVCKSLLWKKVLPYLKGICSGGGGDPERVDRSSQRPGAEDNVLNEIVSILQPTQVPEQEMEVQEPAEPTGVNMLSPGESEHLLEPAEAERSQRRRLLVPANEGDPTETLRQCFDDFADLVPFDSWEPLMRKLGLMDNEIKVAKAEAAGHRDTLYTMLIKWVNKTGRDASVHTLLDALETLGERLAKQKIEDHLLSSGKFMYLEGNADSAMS
# UniProt Q0P6H9: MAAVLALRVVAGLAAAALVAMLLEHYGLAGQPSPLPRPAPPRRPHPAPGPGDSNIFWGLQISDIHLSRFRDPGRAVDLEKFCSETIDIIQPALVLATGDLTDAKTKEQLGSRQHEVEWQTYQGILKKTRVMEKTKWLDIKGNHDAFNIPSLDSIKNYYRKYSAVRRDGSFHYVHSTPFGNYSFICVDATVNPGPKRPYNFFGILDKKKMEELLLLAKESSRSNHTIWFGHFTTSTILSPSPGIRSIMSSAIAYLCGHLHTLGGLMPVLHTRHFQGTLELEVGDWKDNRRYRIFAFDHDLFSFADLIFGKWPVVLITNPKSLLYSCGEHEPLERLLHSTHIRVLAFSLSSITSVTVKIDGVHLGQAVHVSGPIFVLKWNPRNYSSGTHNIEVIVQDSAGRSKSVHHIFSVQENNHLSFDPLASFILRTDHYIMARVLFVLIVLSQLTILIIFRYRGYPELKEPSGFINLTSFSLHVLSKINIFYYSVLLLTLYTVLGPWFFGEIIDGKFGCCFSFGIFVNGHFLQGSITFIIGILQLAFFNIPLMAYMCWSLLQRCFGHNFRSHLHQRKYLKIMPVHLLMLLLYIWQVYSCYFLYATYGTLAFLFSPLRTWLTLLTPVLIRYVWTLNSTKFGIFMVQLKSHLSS
# This is one part of the list.
# Experiments:
# Test in all cases: log2 fold change, soluble protein after heating vs DMSO (PISA); higher = thermal stabilisation; K562 lysate, 10 uM; active = over 0.2 and 3.5 SD of the protein, either way, in both replicates (recomputed)
# [1] = compound: NCC(=O)Nc1ccc(-n2nc(C(F)(F)F)cc2-c2ccc3c(ccc4ccccc43)c2)cc1
# Outline: (§1)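 Quantification was by TMTpro 16plex LC-MS/MS with equalised channel sums, applied to the supernatant after 21,000xg for 90 min. Samples were crude K562 extract at 1 mg/mL protein in PBS pH 7.4 with 1 mM MgCl2, treated with 10 μM compound for 30 min, heated for 3 min across 48°C-58°C, pooled and brought to 0.5% NP-40 at 4°C. Values are log-two fold changes in thermal stability relative to solvent controls, from duplicates.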
# vorinostat = compound: O=C(CCCCCCC(=O)Nc1ccccc1)NO [vorinostat]
# Outline: as §1
# silmitasertib = compound: O=C(O)c1ccc2c(c1)nc(Nc1cccc(Cl)c1)c1ccncc12 [silmitasertib]
# Outline: as §1
# [2] = compound: O=C1NC(=O)C(c2cnc3ccccn23)=C1c1cn2c3c(cc(F)cc13)CN(C(=O)N1CCCCC1)CC2
# Outline: as §1
# entospletinib = compound: c1cn2cc(-c3ccc4cn[nH]c4c3)nc(Nc3ccc(N4CCOCC4)cc3)c2n1 [entospletinib]
# Outline: as §1
Target,log2 fold change [1],log2 fold change (vorinostat),log2 fold change (silmitasertib),log2 fold change [2],log2 fold change (entospletinib)
TOR4A (UniProt Q9NXH8),inactive: 0.015,inactive: 0.012,inactive: 0.047,inactive: -0.001,inactive: 0.008
TOP3B (UniProt O95985),inactive: 0.046,inactive: -0.054,inactive: 0.009,inactive: 0.018,inactive: 0.012
TMEM192 (UniProt Q8IY95),inactive: 0.005,inactive: 0.123,inactive: -0.019,inactive: -0.025,inactive: 0.004
TMEM248 (UniProt Q9NWD8),inactive: -0.081,inactive: 0.06,inactive: 0.039,inactive: -0.014,inactive: -0.025
TPMT (UniProt P51580),inactive: 0.005,inactive: -0.037,inactive: 0.034,inactive: -0.032,inactive: -0.012
TOMM40 (UniProt O96008),inactive: 0.033,inactive: 0.1,inactive: -0.043,inactive: -0.006,inactive: 0.015
TPP2 (UniProt P29144),inactive: -0.015,inactive: -0.121,inactive: 0.02,inactive: -0.011,inactive: 0.003
TMEM30A (UniProt Q9NV96),inactive: 0.003,inactive: 0.054,inactive: -0.007,inactive: 0.014,inactive: -0.029
TPM4 (UniProt P67936),inactive: -0.001,inactive: 0.166,inactive: -0.018,inactive: -0.023,inactive: 0.048
TPP1 (UniProt O14773),inactive: 0.008,inactive: 0.078,inactive: -0.004,inactive: -0.002,inactive: -0.003
TNFAIP8 isoform 4 (UniProt O95379),inactive: 0.097,inactive: -0.048,inactive: 0.035,inactive: -0.04,inactive: 0.017
TOR1AIP1 isoform 3 (UniProt Q5JTV8),inactive: -0.01,inactive: 0.113,inactive: -0.014,inactive: -0.015,inactive: 0.017
TMOD1 (UniProt P28289),inactive: 0.005,active: -0.312,inactive: 0.02,inactive: -0.005,inactive: 0.01
TRA2A (UniProt Q13595),inactive: 0.009,active: 0.568,inactive: -0.151,inactive: 0.005,inactive: -0.102
TMEM94 isoform 2 (UniProt Q12767),inactive: 0.084,inactive: -0.093,inactive: 0.091,inactive: 0.045,inactive: 0.081
TMX2 (UniProt Q9Y320),inactive: -0.008,inactive: 0.085,inactive: 0.01,inactive: -0.01,inactive: -0.012
TMSB10 (UniProt P63313),inactive: 0.028,inactive: 0.254,inactive: -0.075,inactive: 0.094,inactive: -0.09
TOP2B isoform 2 (UniProt Q02880),inactive: -0.027,inactive: -0.061,inactive: 0.034,inactive: 0.022,inactive: -0.005
TOR1B (UniProt O14657),inactive: 0.056,inactive: 0.042,inactive: 0.018,inactive: -0.04,inactive: -0.027
TP53BP1 isoform 2 (UniProt Q12888),inactive: -0.024,inactive: -0.018,inactive: 0.019,inactive: -0.001,inactive: -0.021
TMEM19 (UniProt Q96HH6),inactive: -0.231,inactive: -0.024,inactive: 0.136,inactive: -0.165,inactive: 0.081
TOM1L1 (UniProt O75674),inactive: 0.008,inactive: 0.099,inactive: -0.027,inactive: -0.01,inactive: 0.014
TNPO2 (UniProt O14787),inactive: 0.022,inactive: -0.198,inactive: 0.007,inactive: -0.003,inactive: 0.004
TOMM5 (UniProt Q8N4H5),inactive: -0.039,inactive: 0.076,inactive: 0.034,inactive: 0,inactive: 0.025
TMPO (UniProt P42167),inactive: 0.021,inactive: 0.104,inactive: 0.012,inactive: -0.032,inactive: -0.031
TRADD (UniProt Q15628),inactive: 0.034,inactive: -0.284,inactive: 0.021,inactive: -0.029,inactive: 0.059
TNNC2 (UniProt P02585),inactive: -0.039,inactive: 0.126,inactive: -0.05,inactive: -0.041,inactive: -0.076

# Retrieved one by one from above (2):
Target,log2 fold change [1],log2 fold change (vorinostat),log2 fold change (silmitasertib),log2 fold change [2],log2 fold change (entospletinib)
TNFAIP8 isoform 4 (UniProt O95379),inactive: 0.097,inactive: -0.048,inactive: 0.035,inactive: -0.04,inactive: 0.017
TRA2A (UniProt Q13595),inactive: 0.009,active: 0.568,inactive: -0.151,inactive: 0.005,inactive: -0.102

# (listing goes on)

Target,log2 fold change [1],log2 fold change (vorinostat),log2 fold change (silmitasertib),log2 fold change [2],log2 fold change (entospletinib)
TOP1 (UniProt P11387),inactive: -0.051,inactive: 0.058,inactive: 0.037,inactive: 0.019,inactive: 0.033
TOM1 isoform 2 (UniProt O60784),inactive: 0.017,inactive: 0.085,inactive: 0,inactive: -0.018,inactive: -0.061
TNFAIP2 (UniProt Q03169),inactive: 0.13,inactive: 0.133,inactive: -0.051,inactive: 0.057,inactive: 0.025
TPR (UniProt P12270),inactive: 0.02,inactive: 0.092,inactive: -0.027,inactive: -0.01,inactive: 0.008
TOP3A (UniProt Q13472),inactive: 0.024,inactive: -0.173,inactive: 0.15,inactive: -0.035,inactive: 0.052
TMX1 (UniProt Q9H3N1),inactive: 0.024,inactive: 0.117,inactive: 0.008,inactive: -0.032,inactive: 0.022
TNFRSF1B (UniProt P20333),inactive: -0.02,inactive: -0.104,inactive: -0.048,inactive: 0.02,inactive: -0.049
TPD52L2 isoform 7 (UniProt O43399),inactive: -0.043,inactive: 0.148,inactive: -0.044,inactive: -0.027,inactive: -0.016
TONSL (UniProt Q96HA7),inactive: -0.001,inactive: -0.128,inactive: 0.061,inactive: 0.038,inactive: 0.004
TP53I3 (UniProt Q53FA7),inactive: -0.099,inactive: 0.085,inactive: -0.03,inactive: -0.032,inactive: 0.02
TMEM65 (UniProt Q6PI78),inactive: -0.042,inactive: 0.131,inactive: 0.016,inactive: -0.024,inactive: -0.04
TPI1 (UniProt P60174),inactive: 0.032,inactive: 0.124,inactive: -0.014,inactive: 0.024,inactive: 0.073
TOR1AIP2 (UniProt Q8NFQ8),inactive: -0.013,inactive: 0.164,inactive: -0.021,inactive: -0.016,inactive: 0.002
TOMM70 (UniProt O94826),inactive: -0.017,inactive: -0.179,inactive: 0.058,inactive: -0.017,inactive: 0.05
TPM3 (UniProt P06753),inactive: 0.004,inactive: 0.112,inactive: 0.012,inactive: -0.004,inactive: 0.008
TMEM69 (UniProt Q5SWH9),inactive: -0.111,inactive: -0.042,inactive: -0.089,inactive: 0.05,inactive: 0.115
TNIP2 (UniProt Q8NFZ5),inactive: 0.214,inactive: -0.015,inactive: 0.009,inactive: 0.096,inactive: 0.068
TMPO (UniProt P42166),inactive: 0.037,active: -0.569,inactive: -0.057,inactive: 0.009,inactive: -0.029
TMEM189-UBE2V1 (UniProt I3L0A0),inactive: -0.047,inactive: 0.146,inactive: -0.053,inactive: 0.011,inactive: 0.001
TOMM40L (UniProt Q969M1),inactive: -0.033,inactive: 0.061,inactive: -0.031,inactive: -0.023,inactive: -0.027
TOX4 (UniProt O94842),inactive: -0.021,inactive: -0.018,inactive: -0.037,inactive: -0.025,inactive: -0.006
TNPO3 (UniProt Q9Y5L0),inactive: 0.017,active: -0.317,inactive: 0.015,inactive: 0.009,inactive: 0.022
TOP2A isoform 4 (UniProt P11388),inactive: 0.016,inactive: -0.044,inactive: 0.051,inactive: -0.015,inactive: 0.044
TNFRSF10B (UniProt O14763),inactive: 0.046,inactive: 0.134,inactive: 0.032,inactive: 0.007,inactive: 0.043
TMEM62 (UniProt Q0P6H9),inactive: 0.042,inactive: 0.048,inactive: 0.008,inactive: 0.005,inactive: 0.019
TNIK (UniProt C9J338),inactive: 0.195,inactive: 0.103,inactive: -0.023,inactive: 0.006,inactive: -0.049
